Measured values taken from article PMC10945337 (Theranostics, 2024).

System: tumor lesions over organs at risk
Assay: Individual therapeutic index (TI) and relative therapeutic index (rTI)
Assay type: in vivo, human
Settings: mean ± SD, 6 patients

Substance: [^177Lu]Lu-PSMA-617
- Mean TI-kidney (mean tumor-absorbed dose over kidney dose): 5.28 ± 5.13
- Mean TI-parotid (mean tumor-absorbed dose over parotid gland dose): 12.51 ± 18.09
